Measurements: publication PMC5547131
These are yes or no findings as the source states them, for the method shown. In cells and extracts the contact can be indirect. Binding calls can cover weak binding; strength is not graded here.

The chains behind the UniProt entries cited, without tags or fusion partners. Where a name states a change or a piece, a line headed by the entry shows the natural chain unless it says otherwise.
UniProt P49767: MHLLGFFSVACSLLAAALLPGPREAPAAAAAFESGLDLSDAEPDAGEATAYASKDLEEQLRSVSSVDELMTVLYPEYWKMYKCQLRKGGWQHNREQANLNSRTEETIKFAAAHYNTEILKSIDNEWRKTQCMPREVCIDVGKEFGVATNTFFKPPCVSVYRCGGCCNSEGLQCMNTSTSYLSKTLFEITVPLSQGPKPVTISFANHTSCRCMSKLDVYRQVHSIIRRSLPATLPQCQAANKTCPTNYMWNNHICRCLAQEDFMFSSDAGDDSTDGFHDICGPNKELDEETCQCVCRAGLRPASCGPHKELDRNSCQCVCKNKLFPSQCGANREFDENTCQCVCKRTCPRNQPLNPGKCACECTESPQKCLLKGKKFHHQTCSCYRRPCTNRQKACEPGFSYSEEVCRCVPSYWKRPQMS

Key:
VEGF-C = VEGF-C (UniProt P49767); experiment: co-IP; HEK293 cells co-transfected with VEGF-C and Flag-tagged CD146 or its truncation mutants for 48 h; RIPA lysates precipitated with anti-VEGF-C mAb, protein G sepharose, WB
full-length CD146 = molecular target: T1, full-length CD146 (UniProt P43121); experiment: co-IP; HEK293 cells transfected with CD146 or empty vector, incubated with VEGF-C-His conditional medium or not; lysates precipitated, WB; precipitating antibody not told for this panel
T1 sequence: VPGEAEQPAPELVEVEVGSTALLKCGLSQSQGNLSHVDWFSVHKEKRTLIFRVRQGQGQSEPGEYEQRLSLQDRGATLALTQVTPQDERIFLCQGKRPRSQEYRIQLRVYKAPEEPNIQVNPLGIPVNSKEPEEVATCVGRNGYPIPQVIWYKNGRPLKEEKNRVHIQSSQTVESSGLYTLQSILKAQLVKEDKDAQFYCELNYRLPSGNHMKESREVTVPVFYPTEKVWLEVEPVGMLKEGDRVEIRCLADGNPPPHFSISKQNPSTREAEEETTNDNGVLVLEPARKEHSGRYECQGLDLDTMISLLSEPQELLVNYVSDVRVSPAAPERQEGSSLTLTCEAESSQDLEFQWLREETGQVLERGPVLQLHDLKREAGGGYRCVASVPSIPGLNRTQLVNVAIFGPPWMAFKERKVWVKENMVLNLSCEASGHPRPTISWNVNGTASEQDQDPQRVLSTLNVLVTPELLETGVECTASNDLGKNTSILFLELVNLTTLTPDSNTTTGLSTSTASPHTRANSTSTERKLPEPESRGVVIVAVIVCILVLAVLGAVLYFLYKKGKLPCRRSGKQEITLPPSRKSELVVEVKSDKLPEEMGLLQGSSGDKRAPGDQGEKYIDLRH

| binding (VEGF-C) | binding (full-length CD146) | Substance |
| --- | --- | --- |
| binds | – | full-length CD146, Flag-tagged (from UniProt P43121 24-646) (receptor) |
| – | binds | VEGF-C-His (from UniProt P49767) (ligand) |
